In the supplement of paper PMC7646827:
Counter-ions that a name gives are not always drawn. Single values are uncertain, as repeats are few or missing.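 All cells are established human bladder cancer lines, one derived from a patient-derived xenograft. A luminescent ATP assay measured viability as percent inhibition relative to vehicle across seven dilutions. The paper rates scores above 59 very active, 30–59 active, 21–29 semi-active, 9–20 low active, below 9 inactive.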

Columns and labels:
Assay in all cases: drug sensitivity score DSS3 (score 0-100); higher = more sensitive; extreme values may be limits of the assay
Settings in all cases: culture: 3D, ultra-low attachment; treatment time: 5 days
UM-UC-17 = tested on: UM-UC-17
UM-UC-3 = tested on: UM-UC-3
UM-UC-9 = tested on: UM-UC-9
UM-UC-5 = tested on: UM-UC-5
UM-UC-1 = tested on: UM-UC-1
UM-UC-6 = tested on: UM-UC-6
5637 = tested on: 5637
SW780 = tested on: SW780
T-24 = tested on: T-24
SCaBER = tested on: SCaBER
J82 = tested on: J82
UM-UC-18 = tested on: UM-UC-18
UM-UC-14 = tested on: UM-UC-14
BC8149 = tested on: BC8149
UM-UC-15 = tested on: UM-UC-15
UM-UC-12 = tested on: UM-UC-12
TCCSUP = tested on: TCCSUP

| SMILES | drug sensitivity score DSS3 (UM-UC-17) | drug sensitivity score DSS3 (UM-UC-3) | drug sensitivity score DSS3 (UM-UC-9) | drug sensitivity score DSS3 (UM-UC-5) | drug sensitivity score DSS3 (UM-UC-1) | drug sensitivity score DSS3 (UM-UC-6) | drug sensitivity score DSS3 5637 | drug sensitivity score DSS3 (SW780) | drug sensitivity score DSS3 (T-24) | drug sensitivity score DSS3 (SCaBER) | drug sensitivity score DSS3 (J82) | drug sensitivity score DSS3 (UM-UC-18) | drug sensitivity score DSS3 (UM-UC-14) | drug sensitivity score DSS3 (BC8149) | drug sensitivity score DSS3 (UM-UC-15) | drug sensitivity score DSS3 (UM-UC-12) | drug sensitivity score DSS3 (TCCSUP) |
| --- | --- | --- | --- | --- | --- | --- | --- | --- | --- | --- | --- | --- | --- | --- | --- | --- | --- |
| COc1ccccc1OCC(O)CN1CCN(CC(=O)Nc2c(C)cccc2C)CC1 (configuration not stated) [Ranolazine] (max dose 10000 nM) | 0 | 0.85 | 0 | 0 | 0 | 0 | 0 | 0 | 0 | 0 | 0 | 0 | 0 | 0 | 0 | 0 | 0 |
| Nc1nc(N)c(N=O)c(OCC2CCCCC2)n1 [NU6027] (max dose 10000 nM) | 0 | 0 | 0 | 0 | 0 | 0 | 0 | 0 | 0 | 0 | 0 | 0 | 0 | 0 | 6.04 | 0 | 1.82 |
| CCCc1cc(C)[nH]c(=O)c1CNC(=O)c1cc(-c2ccc(N3CCN(C(C)C)CC3)nc2)cc2c1cnn2C(C)C [UNC1999] (max dose 10000 nM) | 0 | 0 | 0 | 0.0129 | 14.7 | 0 | 2.63 | 0 | 0 | 0 | 0 | 2.18 | 1.78 | 0.029 | 0.137 | 0 | 1.73 |
| CC[C@@]1(O)C(=O)OCc2c1cc1n(c2=O)Cc2cc3c(CN(C)C)c(O)ccc3nc2-1 [Topotecan HCl] (max dose 10000 nM) | 4.47 | 23.8 | 7.66 | 15.4 | 26.5 | 15.6 | 39.4 | 3.61 | 3.27 | 5.23 | 10.3 | 24.5 | 13.4 | 37.7 | 1.94 | 17.4 | 38.6 |
| O=c1[nH]c2ccc(Cl)cc2c(N[C@@H]2CN3CCC2CC3)c1-c1nc2ccccc2[nH]1 [CHIR-124] (max dose 10000 nM) | 2.58 | 0.108 | 1.65 | 0.144 | 15.2 | 16 | 19 | 0 | 1.67 | 0.104 | 1.62 | 7.29 | 3.78 | 10 | 40.5 | 2.73 | 26.4 |
| N#Cc1ccc(COC[C@H]2O[C@@H](n3c(NCc4ccc(Cl)c(Cl)c4)nc4c(N)ncnc43)[C@H](O)[C@@H]2O)cc1 (max dose 10000 nM) | 0 | 0.718 | 1.35 | 1.21 | 2.12 | 2.16 | 2.99 | 0.627 | 0.608 | 2.42 | 1.41 | 3.57 | 1.17 | 12 | 0 | 2.85 | 8.06 |
| Cc1cc(Nc2ncc(Cl)c(Nc3ccccc3S(=O)(=O)C(C)C)n2)c(OC(C)C)cc1C1CCNCC1 [ceritinib] (max dose 10000 nM) | 26.9 | 8.59 | 4.65 | 2.53 | 37.3 | 9.34 | 58.7 | 10.7 | 0.224 | 23.4 | 7.33 | 52.2 | 39.7 | 43.5 | 2.69 | 35 | 62.8 |
| COc1ccc(CNc2nc(N3CCC[C@H]3CO)ncc2C(=O)NCc2ncccn2)cc1Cl [Avanafil] (max dose 10000 nM) | 0 | 0 | 0 | 1.07 | 0 | 0 | 0.105 | 0 | 0 | 0 | 0 | 0 | 0 | 0 | 17.9 | 0 | 0 |
| CCC[C@H](NC(=O)/C(C#N)=C/c1cccc(Br)n1)c1ccccc1 [Degrasyn (WP1130)] (max dose 10000 nM) | 6.18 | 3.39 | 0 | 2.02 | 0 | 0 | 0.365 | 0.0461 | 0 | 2.41 | 0 | 0 | 0.151 | 3.15 | 0 | 1.01 | 0.835 |
| CN(C)C1CCN(C(=O)c2ccc(NC(=O)Nc3ccc(-c4nc(N5CCOCC5)nc(N5CCOCC5)n4)cc3)cc2)CC1 [Gedatolisib] (max dose 2000 nM) | 29.6 | 20.9 | 34.9 | 44.4 | 56.2 | 12.4 | 42.6 | 53.8 | 1.99 | 27.3 | 0.68 | 21.6 | 3.4 | 44.4 | 4.2 | 4.84 | 57.6 |
| c1ccc([C@@H]2C[C@H]2NC2CCNCC2)cc1 [GSK-LSD1 2HCl] (max dose 10000 nM) | 0.0168 | 0 | 0 | 0 | 0 | 0.00154 | 0.0295 | 0 | 0 | 0 | 0 | 0 | 0.648 | 13.7 | 0 | 0.619 | 1.67 |
| C=CC(=O)Nc1cccc(Nc2nc(Nc3ccc(OCCOC)cc3)ncc2F)c1 [Spebrutinib (CC-292, AVL-292)] (max dose 10000 nM) | 0 | 0 | 0 | 0 | 0 | 0 | 1.86 | 0 | 0 | 0.158 | 0 | 0 | 0.392 | 0.307 | 0 | 0 | 2.58 |
| NC(=O)Nc1sc(-c2ccc(F)cc2)cc1C(N)=O [TPCA-1] (max dose 10000 nM) | 0 | 3.02 | 0 | 0 | 0.497 | 0 | 0.218 | 0 | 0.518 | 0 | 0 | 0 | 0.895 | 0.837 | 0 | 0 | 2.13 |
| C/C=C1\[C@H]2C=C(C)C[C@]1(N)c1ccc(=O)[nH]c1C2 [(-)-Huperzine A (HupA)] (max dose 10000 nM) | 0 | 0 | 0 | 0 | 0 | 0 | 0 | 0 | 0 | 0 | 0 | 0 | 0 | 0 | 7.93 | 0 | 0 |
| COc1ccc(-c2cnc3c(-c4cccc5ncccc45)cnn3c2)cc1 [ML347] (max dose 10000 nM) | 0 | 0 | 0.0446 | 1.06 | 0.0349 | 0.0167 | 0 | 0 | 0.881 | 2.24 | 0 | 0 | 0 | 0 | 0 | 0 | 0 |
| C/C(O)=C(\C#N)C(=O)Nc1cc(Br)ccc1Br [LFM-A13] (max dose 10000 nM) | 0 | 0 | 0 | 0 | 0 | 0 | 0 | 0 | 0 | 0.572 | 0 | 0 | 0 | 2.66 | 0.314 | 0 | 0.294 |
| CN(C)c1nc(N(C)C)nc(N(C)C)n1 [Altretamine] (max dose 10000 nM) | 0 | 0 | 0 | 0 | 0 | 0 | 0 | 0 | 0 | 0 | 0 | 0 | 0 | 0 | 0 | 0 | 0 |
| CC(C)C[C@H](NC(=O)CNC(=O)c1cc(Cl)ccc1Cl)B(O)O [MLN2238] (max dose 10000 nM) | 40.3 | 15 | 32 | 27.2 | 38.6 | 26.6 | 47.9 | 45.9 | 5.67 | 42.5 | 32.9 | 30.2 | 34 | 55 | 30.4 | 50.6 | 34.8 |
| CN(C)C(=O)/C(C#N)=C/c1ccc(-c2nc3cnc4[nH]ccc4c3n2C2CCCCC2)o1 [FM-381] (max dose 10000 nM) | 0.373 | 0.423 | 0 | 0 | 0 | 0 | 0.202 | 0 | 0 | 0 | 0 | 0.108 | 0 | 0.406 | 7.01 | 0 | 0 |
| CC(C)C[C@H](NC(=O)CNC(=O)c1cc(Cl)ccc1Cl)B1OC(=O)C(CC(=O)O)(CC(=O)O)O1 [MLN9708] (max dose 10000 nM) | 61.4 | 19.7 | 44.6 | 32.6 | 52.7 | 41.1 | 72.2 | 64.3 | 12.1 | 54.7 | 37.9 | 45.8 | 47.7 | 69.7 | 32.9 | 66.6 | 65.3 |
| COc1ccc(C2=N[C@@H](c3ccc(Cl)cc3)[C@@H](c3ccc(Cl)cc3)N2C(=O)N2CCNC(=O)C2)c(OC(C)C)c1 [Nutlin-3] (max dose 10000 nM) | 0 | 0 | 0 | 0 | 0 | 0 | 0 | 0 | 0 | 0 | 0 | 0.255 | 0 | 0 | 0 | 0 | 0 |

2 consecutive records from above, quoted:

| SMILES | drug sensitivity score DSS3 (UM-UC-17) | drug sensitivity score DSS3 (UM-UC-3) | drug sensitivity score DSS3 (UM-UC-9) | drug sensitivity score DSS3 (UM-UC-5) | drug sensitivity score DSS3 (UM-UC-1) | drug sensitivity score DSS3 (UM-UC-6) | drug sensitivity score DSS3 5637 | drug sensitivity score DSS3 (SW780) | drug sensitivity score DSS3 (T-24) | drug sensitivity score DSS3 (SCaBER) | drug sensitivity score DSS3 (J82) | drug sensitivity score DSS3 (UM-UC-18) | drug sensitivity score DSS3 (UM-UC-14) | drug sensitivity score DSS3 (BC8149) | drug sensitivity score DSS3 (UM-UC-15) | drug sensitivity score DSS3 (UM-UC-12) | drug sensitivity score DSS3 (TCCSUP) |
| --- | --- | --- | --- | --- | --- | --- | --- | --- | --- | --- | --- | --- | --- | --- | --- | --- | --- |
| Nc1nc(N)c(N=O)c(OCC2CCCCC2)n1 [NU6027] (max dose 10000 nM) | 0 | 0 | 0 | 0 | 0 | 0 | 0 | 0 | 0 | 0 | 0 | 0 | 0 | 0 | 6.04 | 0 | 1.82 |
| CCCc1cc(C)[nH]c(=O)c1CNC(=O)c1cc(-c2ccc(N3CCN(C(C)C)CC3)nc2)cc2c1cnn2C(C)C [UNC1999] (max dose 10000 nM) | 0 | 0 | 0 | 0.0129 | 14.7 | 0 | 2.63 | 0 | 0 | 0 | 0 | 2.18 | 1.78 | 0.029 | 0.137 | 0 | 1.73 |
